Experimental data: PubChem BioAssay AID602196 (INSERM, 2012)

Assay: 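Knock-downs that protect lung cancer cells from cisplatin or sensitise them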
Cell system: human A549 lung cancer cells
Reagent: siRNA pair against human genes
Timing: 48 h transfection before cisplatin; time from cisplatin to read-out not stated
Conditions: cisplatin at a dose killing half of control-siRNA cells; exact dose and duration not given
Measurement: 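Shift in cisplatin death relative to control siRNA, from -50 (all cells die) to +50 (no cells die); siRNAs harmful on their own scored 0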
Reading the numbers: two-siRNA summed score (-2 to +2): higher = both siRNAs protect from cisplatin killing; -2 means both sensitise; mean protection from cisplatin (shift in death) and protection from cisplatin (shift in death), siRNA C: higher = protection from cisplatin killing
Hit rule: 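Each siRNA scores 0 if harmful alone by LDH or WST-1, otherwise +1 if it reduces and -1 if it increases cisplatin killing; a gene is active when both siRNAs agree (sum +2 or -2)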
Calls: active = both siRNAs shift cisplatin killing the same way; inactive = no consistent shift, or siRNA harmful alone
The whole screen tested about 23,000 reagents; below is an unselected part. Over the whole deposit, 455 (2%) were called active. 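Active includes both protection and sensitisation; some change values fall well beyond the stated -50 to +50 range.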 Reagents against one gene are numbered here. Further read-outs or replicates are left out here. Not given: the amount of reagent.

The opening 6 records, to show the layout:
no.	target	reagent	two-siRNA summed score (-2 to +2)	mean protection from cisplatin (shift in death) (%)	protection from cisplatin (shift in death), siRNA C (%)	outcome
1	SSPN	1	0	8.2	11.4	inactive
2	SYNPO2	1	0	12.8	11.7	inactive
3	OR51B5	1	2	22.4	16.5	active
4	LOC442608	1	0	-0.1	-7.2	inactive
5	NR1D2	1	0	-0.4	-6.4	inactive
6	TSNAXIP1	1	0	-2	9.7	inactive

Main list, from the first entry:
no.	target	reagent	two-siRNA summed score (-2 to +2)	mean protection from cisplatin (shift in death) (%)	protection from cisplatin (shift in death), siRNA C (%)	outcome
1	SSPN	1	0	8.2	11.4	inactive
2	SYNPO2	1	0	12.8	11.7	inactive
3	OR51B5	1	2	22.4	16.5	active
4	LOC442608	1	0	-0.1	-7.2	inactive
5	NR1D2	1	0	-0.4	-6.4	inactive
6	TSNAXIP1	1	0	-2	9.7	inactive
7	ASPNAT	1	0	4.2	5.2	inactive
8	CNTFR	1	0	25	10.2	inactive
9	TTC38	1	0	3.3	-1.3	inactive
10	DNM1L	1	0	8.7	4.5	inactive
11	APOBEC3F	1	0	25.5	16.2	inactive
12	LOC441284	1	1	10.5	6.9	inactive
13	ZHX2	1	0	1.3	6.6	inactive
14	TSEN15	1	0	4.9	7.9	inactive
15	LOC442016	1	1	19.8	23.6	inactive
16	VPS13C	1	0	-0.9	-2.4	inactive
17	VPS13C	2	0	3.8	5.7	inactive
18	LOC146712	1	0	-1.6	8.7	inactive
19	ZDHHC4	1	0	12.6	22.5	inactive
20	LINC02209	1	0	13.3	17.7	inactive
21	DTNA	1	0	2.2	11.5	inactive
22	LOC391770	1	0	1.2	6.1	inactive
23	LOC441401	1	0	-4	2.6	inactive
24	LOC285026	1	0	10.9	7.2	inactive
25	ACTR5	1	0	-0.8	-0.7	inactive
26	NUDT16L2P	1	0	11.9	19.9	inactive
27	BHLHE23	1	0	3.4	6.9	inactive
28	LOC400704	1	0	4.9	3.5	inactive
29	SLC25A19	1	0	16.3	16.9	inactive
30	ACOT2	1	1	3.3	12.4	inactive
31	LOC442003	1	1	9.4	6.1	inactive
32	ARL13A	1	0	15.8	21.9	inactive
33	TTC9	1	0	1.1	8.7	inactive
34	DMRT2	1	0	6.4	3.7	inactive
35	XAGE3	1	0	0.7	-0.2	inactive
36	LOC342933	1	-1	-6.8	-0.9	inactive
37	LINC00924	1	0	2.4	9.5	inactive
38	KLHL40	1	0	0.3	-5.3	inactive
39	LOC440971	1	0	3.7	-5.9	inactive
40	CCNT1	1	0	-7.1	-10.6	inactive
41	LOC387884	1	0	0.1	-6.6	inactive
42	CXCL14	1	0	4.5	10.7	inactive
43	ZFP14	1	0	11.5	19.3	inactive
44	AGRP	1	0	-4.4	13.2	inactive
45	GPR37	1	0	-6.6	-4	inactive
46	OR2AG1	1	0	3.2	6	inactive
47	MIR600HG	1	0	-6	-1.8	inactive
48	COG4	1	0	-1.4	-8.4	inactive
49	NDUFS3	1	0	7.1	8.3	inactive
50	MYO1A	1	0	4.5	5	inactive
51	TFAP2D	1	1	9.9	19.1	inactive
52	TSC22D2	1	0	2.3	4.6	inactive
53	THY1	1	0	7.9	4.1	inactive
54	ATP6V0E2	1	-1	-6.3	-23.7	inactive
55	PAQR6	1	-1	-12.6	-19.9	inactive
56	TTBK2	1	0	11.7	16.9	inactive
57	TUBA1A	1	-1	-16.8	-8.7	inactive
58	WEE1	1	0	8.8	12.2	inactive
59	ABHD5	1	0	3.6	5.6	inactive
60	SCLT1	1	1	16.1	22.8	inactive
61	LOC388532	1	1	23.2	19.9	inactive
62	LOC400201	1	0	-5.1	-6	inactive
63	GPATCH2L	1	1	20.6	33.4	inactive
64	CNR1	1	0	-2	-8.3	inactive
65	FAM193A	1	0	4.6	-0.4	inactive
66	OR6W1P	1	1	16.5	-3.2	inactive
67	ZDHHC5	1	1	10.2	-2.6	inactive
68	ZW10	1	0	-4.6	-10.7	inactive
69	GPM6A	1	1	14.3	27.2	inactive
70	SANBR	1	0	1.8	-4.9	inactive
71	GLIPR1L2	1	0	-2.6	9	inactive
72	BTG1	1	0	-9.8	3	inactive
73	LOC440270	1	0	10.8	26.6	inactive
